The list shows a part of the results.
B1: il10ra_site1_normal_mot_HHH_b1_00999_000000080_0001_41_55_H_._HHH_b2_04871_af2_0001_0000500014_0000002_0 (protein)
chain: SSSSDEEVEEEVKRLLEEAEKTPDPEERLELLLEALRIAYENQDAELLQEIWEVIRKLGGSSSSS
B2: il10ra_site1_sap_20_mot_HHH_b1_07097_af2_000000269_0001_1_16_H_._HHH_b1_06196_0001_0000100004_0000001_0_0001 (protein)
chain: SSTEELLRQLIETVERLIREGTITESAKFHVRQAIKAAKLLGDEEVEKRLRELEERIEEVESSSS
B3: il10ra_site1_normal_mot_HHH_b1_02809_af2_000000277_0001_40_57_H_._HHH_b2_07759_af2_0001_0000100002_0000001_0 (protein)
chain: SSSSSSREEKLIELALKFARALEDEEAARALARAALEIARKLGDEELFEKVQEFLEELNSSSSSS
B4: il10ra_site1_normal_mot_HHH_b2_08144_af2_000000046_0001_38_52_H_._HHH_b1_01389_af2_0001_0000500024_0000001_0_af2pred_0001 (protein)
chain: SSSSDEVEEAVRLLREALKLYAEGNPEEAKKVVEEAKEVAEEGNNPLLKFLIESLERRINRSSSS
B5: il10ra_site1_sap_21_mot_a4073ed34bad1529e7d46a7d39fa26d0_0001_af2_000000058_0001_1_11_H_._HHH_b2_03967_0001_0000100005_0000001_0_0001_af2pred_0001 (protein)
chain: SSSSTHEVSQLIARALRLIQNGNPEEAEEVIQEAERLAEEIGDPKLKIAVRFVKFILEQAESSSS
B6: il10ra_site1_normal_mot_HHH_b1_01821_000000158_0001_23_39_H_._HHH_b1_01089_0001_0000500027_0000001_0 (protein)
chain: SSSSSSDLEEEIEELLEELKQITDPREFSRVAQEAIRLIFELGDEELLQELWEIFKKFSSSSSSS
B7: il10ra_site1_normal_mot_HHH_b1_01879_000000050_0001_1_18_H_._HHH_b1_03974_0002_0000600017_0000001_0 (protein)
chain: SSSSSEEVEELLIILAELSARDPEYQELLFQAMIEAWILLERGNPEEAERIAEEAIEEVRESSSS
B8: il10ra_site1_normal_mot_HHH_b2_07569_000000265_0001_38_56_H_._HHH_b1_04343_af2_0001_0000300017_0000001_0 (protein)
chain: SSSDDEVARRAARVAAEAIRFAFRNNDKETVQELWELAYRIFREGDPELLEELERLLEELRSSSS
B9: il10ra_site1_sap_24_mot_HHH_b1_02809_af2_000000277_0001_40_57_H_._HHH_b1_04113_af2_0001_0000200009_0000001_0_0001 (protein)
chain: SSSSDAEEEVRRLLEEVRELLEEGDAEKAFRALKRAVEIAAKARDPEAEKLVHELLHEFFQSSSS
B10: il10ra_site1_normal_mot_HHH_b1_07968_af2_000000259_0001_43_56_H_._16d56542c9725820401ab7c11c235cbe_0001_af2_0001_0000500017_0000001_0_af2pred_0001 (protein)
chain: NEIIERSLRYVLKLGDEEAAKAAVKRLLELRGVPPEEIEEILKEFEELLKKDPEEAVEFVVRLLE
B11: il10ra_site1_normal_mot_8756ee2cf497b5429c717dfc0c0bcfd6_0001_000000186_0001_1_13_H_._HHH_b1_06492_0001_0000400026_0000001_0 (protein)
chain: SSSSTSQEIQELLRRASELELEGDDEEAEKLLREAEELAKEANNDVLLFQVEYLLELVEESSSSS
B12: il10ra_site1_normal_mot_HHH_b2_06979_000000158_0001_42_57_H_._HHH_b2_04598_0001_0000200021_0000001_0 (protein)
chain: SSSSDQAEIIYRLARELAELLANGNEEEARELAEEAREILEELGDRLALHNVEFLLRDINSSSSS
B13: il10ra_site1_sap_23_mot_HHH_b1_05357_000000034_0001_23_39_H_._HHH_b2_08077_0001_0000100003_0000001_0_0001 (protein)
chain: SSSSSEELERYVKLSLRFARWLYEAGDPEAARFIVKAALDTARRENNEELVEELEELLRQLSSSS
B14: il10ra_site1_sap_15_mot_HHH_b1_05757_000000171_0001_42_57_H_._HHH_b2_01629_0001_0000100011_0000001_0_0001_af2pred_0001 (protein)
chain: SSSSSDEELREEVEELLEEAKKIDDPKEAAEVIFRALRLAWELGDPELVRLVAEVAKKLKSSSSS
B15: il10ra_site1_sap_23_mot_HHH_b1_06789_af2_000000041_0001_1_20_H_._HHH_b1_05884_0001_0000100017_0000002_0_0001 (protein)
chain: SSSSDEEHQEVYRLLKELIEAMAHGDEELVRELYEEVHELAERLGSRVLLHNIEFAFKRFGSSSS
B16: il10ra_site1_sap_14_mot_HHH_b1_06786_000000000_0001_1_20_H_._HHH_b2_03801_af2_0001_0000100003_0000001_0_0001 (protein)
chain: SSSSDEEVEEEVRELLEEAQRLAEEGNPEEAMKLLAEAVRVAFQGQDPEALRLVWRVVHELSSSS
B17: il10ra_site1_normal_mot_HHH_b2_00984_000000042_0001_1_20_H_._HHH_b2_07534_0001_0000600066_0000001_1 (protein)
chain: SSSSDEEEKRLEELLEEVRELLERGDPERAARLAQELLRHIFRASDEEALQELWELIKREASSSS
B18: il10ra_site1_normal_mot_HHH_b2_03568_000000058_0001_1_19_H_._HHH_b2_02970_0001_0000300026_0000001_0 (protein)
chain: SSSSDESYELARRVIEETIELLRQGDEEEAEKLLREAERLLEELGDFSALFAIKRLLRLVTSSSS
B19: il10ra_site1_normal_mot_HHH_b1_06912_af2_000000235_0001_1_15_H_._HHH_b2_01017_af2_0001_0000100001_0000002_0_af2pred_dldesign_0_af2pred (protein)
chain: SSSSSSSPESEEIYALIREALALEDKEEAKAKLEEALELAKKNNDEIAIETINYALSQLSSSSSS
B20: il10ra_site1_sap_13_mot_HHH_b1_01827_000000263_0001_1_19_H_._HHH_b2_02299_0001_0000200019_0000001_0_0001 (protein)
chain: SSSSDEELQEALRLVLEAFRALLRGDEEKARELLQRALELAEEANDPRAALAIRALLEALNSSSS
B21: il10ra_site1_normal_mot_HHH_b2_02337_000000026_0001_38_52_H_._HHH_b1_08573_0001_0000300047_0000001_0 (protein)
chain: SSSDEEEEIEELIERVEELIKEGDLEEARQVLFEAVHLAAKLGDQELLRELWELVRLLFELSSSS
B22: il10ra_site1_normal_mot_HHH_b1_06912_af2_000000235_0001_1_15_H_._HHH_b2_07253_0001_0000300013_0000001_0_af2pred_0001 (protein)
chain: SSSSSAQEEAERLFEEAEELIEEGDRRRVLELIRLILQLAHENNNPEIFRLAEHLVQLIGSSSSS
B23: il10ra_site1_normal_mot_HHH_b2_00800_af2_000000047_0001_1_20_H_._HHH_b2_07930_0001_0000100001_0000001_0 (protein)
chain: SSSSQEEYEFAREAIEELIRLAREGNEEEFRRLAEEVREFLEEANNLSALFAIEHLVRLVLSSSS
B24: il10ra_site1_normal_mot_HHH_b1_01879_000000050_0001_1_18_H_._HHH_b2_01804_0001_0000100006_0000001_0 (protein)
chain: SSSSDLEEEVEKAEERAEELLKRGNKEEAARLLFQIQIKAWRNNNEELARELAEVQIRILKSSSS
B25: il10ra_site1_sap_18_mot_HHH_b2_04646_000000019_0001_1_20_H_._HHH_b2_00027_0001_0000600010_0000001_0_0001 (protein)
chain: SSSSTDELFEEVERAIEEASELWEEGNPEEAEEVLEEALRLARENNNWATVFSLEHALRVASSSS
B26: il10ra_site1_sap_22_mot_HHH_b1_03260_000000175_0001_42_57_H_._HHH_b1_05644_af2_0001_0000100002_0000001_0_0001_af2pred_dldesign_0_af2pred (protein)
chain: SSSSDLIKRAYLLACEAYRLAKEKGDEETVEEIARLLHEISRTGDPALLERLEALYARLLESSSS
B27: il10ra_site1_normal_mot_HHH_b1_05056_000000217_0001_1_20_H_._HHH_b2_06136_0001_0000100001_0000001_0 (protein)
chain: SSSSSSELEELLEEIKELLENGDPEEALRLIWEAVHLAVELDDRETIQELAELLREVYEASSSSS
B28: il10ra_site1_sap_24_mot_HHH_b1_03260_000000175_0001_42_57_H_._HHH_b2_07663_af2_0001_0000500041_0000001_0_0001 (protein)
chain: SSSSSSRELYELSREAMELLRNGDPEEAERVVEEAIELAQEENNWAVLAALEHVLEQIESSSSSS
B29: il10ra_site1_sap_18_mot_HHH_b2_01235_000000294_0001_1_18_H_._HHH_b2_06844_0001_0000100004_0000001_1_0001_af2pred_dldesign_0_af2pred (protein)
chain: SSSSSSSNERQRVEALLYYASLSRSPEAARIALERAVELATALGDEELLARARAALAEISSSSSS
B30: il10ra_site1_sap_21_mot_69d334f8f173c11440ed040fdc4c94a9_0001_1_000000074_0001_19_34_H_._HHH_b1_08371_0001_0000100008_0000001_0_0001 (protein)
chain: SSSSDAAEFLLEQAERAIELAREAGDEELVKHILEMAENLAKQLNDEEVERELKELLEELHSSSS
B31: il10ra_site1_normal_mot_HHH_b1_05937_af2_000000262_0001_20_37_H_._HHH_b2_02616_0001_0000100004_0000001_0 (protein)
chain: SSSSDEEERLEQLLEELERLLEEGDRERFLRVAIEILRLAFELGDEEALQIVWELVQKLNSSSSS
B32: il10ra_site1_sap_27_mot_HHH_b1_04693_000000238_0001_19_36_H_._HHH_b2_01347_0001_0000200014_0000001_1_0001 (protein)
chain: SSSSDEEHQEVIELIMRAARLMIRGNPEEARKLLEEALELAEELNDEELFKLIQLFLEQIRSSSS
B33: il10ra_site1_sap_22_mot_HHH_b1_07563_000000100_0001_1_20_H_._HHH_b1_07925_0001_0000100001_0000001_0_0001 (protein)
chain: SSSSDEEKELVEAALRLVEQAEEWGDPESARFLLEAAKLIAEDANDPELERLVEEVEEKLSSSSS
B34: il10ra_site1_sap_17_mot_HHH_b1_02708_af2_000000019_0001_23_39_H_._9bea83002f54911cbf225d03fb4c55e1_0001_0001_0000200014_0000001_0_0001 (protein)
chain: SSSSDMEESARLDLEAAELAAEEGNEELVRATIRFAEQAARYAGNEELEKEIKELEERFNSSSSS
B35: il10ra_site1_normal_mot_HHH_b1_04771_000000013_0001_40_56_H_._HHH_b1_07968_af2_0001_0000200010_0000001_0 (protein)
chain: SSSSDDESQKAAELSLRAFRLALRGNPEEAEEVLEEAHELAREAGDERLARVIEELLQALSSSSS
B36: il10ra_site1_sap_31_mot_HHH_b1_01513_af2_000000021_0001_1_16_H_._HHH_b2_03304_0001_0000100005_0000001_0_0001 (protein)
chain: SSSSDEELRELYELARELAEAAHEGDKERAREIAEEARELAEELGSRVILFLIRNMLERLSSSSS
B37: il10ra_site1_sap_5_mot_HHH_b2_01447_af2_000000258_0001_1_20_H_._HHH_b2_07514_0001_0000100008_0000001_0_0001 (protein)
chain: SSSSSFAERSVRRLLEAAKDLEDPEYVRMTLRFAKALARANNNEELEREIEKVEKELEELLSSSS

target: il10ra, Q13651; assay: yeast display titration

Apparent Kd, inactive:
B1 no binding seen
B2 no binding seen
B3 no binding seen
B4 no binding seen
B5 no binding seen
B6 no binding seen
B7 no binding seen
B8 no binding seen
B9 no binding seen
B10 no binding seen
B11 no binding seen
B12 no binding seen
B13 no binding seen
B14 no binding seen
B15 no binding seen
B16 no binding seen
B17 no binding seen
B18 no binding seen
B19 no binding seen
B20 no binding seen
B21 no binding seen
B22 no binding seen
B23 no binding seen
B24 no binding seen
B25 no binding seen
B26 no binding seen
B27 no binding seen
B28 no binding seen
B29 no binding seen
B30 no binding seen
B31 no binding seen
B32 no binding seen
B33 no binding seen
B34 no binding seen
B35 no binding seen
B36 no binding seen
B37 no binding seen

Reference: publication PMC10163288
